Values quoted from earlier work, collected in patent US10125098B2, “Therapeutic compounds and methods of use thereof” (GENENTECH, INC., priority 2014, dated 2018).

Details: lidocaine administered topically (Lidoderm patch); cited from earlier work

**Q.** With `CCN(CC)CC(=O)Nc1c(C)cccc1C` [lidocaine] as the molecule, how does the plasma concentrations read?
**A.** about 1 μM
